{"sequences": {"note": "Protein sequences, listed by entry. Tags and fused reporters are not part of them. Lines headed by an entry give the natural chain unless they say otherwise; changes in a name come on top.", "UniProt Q8R1V4": "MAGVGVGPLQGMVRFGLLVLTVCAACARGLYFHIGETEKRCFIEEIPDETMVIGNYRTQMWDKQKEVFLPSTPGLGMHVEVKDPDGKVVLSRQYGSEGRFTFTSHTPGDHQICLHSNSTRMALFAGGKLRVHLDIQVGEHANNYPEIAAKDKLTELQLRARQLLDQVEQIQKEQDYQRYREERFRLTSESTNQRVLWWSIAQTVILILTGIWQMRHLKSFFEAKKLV", "UniProt Q8R0A2": "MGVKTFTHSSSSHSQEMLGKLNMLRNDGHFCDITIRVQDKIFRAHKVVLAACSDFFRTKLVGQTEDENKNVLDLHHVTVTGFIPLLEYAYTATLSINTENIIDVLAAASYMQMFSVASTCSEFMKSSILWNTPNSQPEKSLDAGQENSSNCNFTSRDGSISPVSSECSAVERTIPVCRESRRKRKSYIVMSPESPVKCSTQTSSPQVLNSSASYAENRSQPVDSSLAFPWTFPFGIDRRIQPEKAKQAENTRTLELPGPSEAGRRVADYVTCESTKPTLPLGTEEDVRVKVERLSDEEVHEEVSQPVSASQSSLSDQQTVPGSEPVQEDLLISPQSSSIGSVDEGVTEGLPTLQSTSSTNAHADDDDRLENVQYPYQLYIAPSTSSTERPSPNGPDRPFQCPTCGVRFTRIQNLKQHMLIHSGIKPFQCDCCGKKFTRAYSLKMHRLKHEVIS", "UniProt Q8K4I3": "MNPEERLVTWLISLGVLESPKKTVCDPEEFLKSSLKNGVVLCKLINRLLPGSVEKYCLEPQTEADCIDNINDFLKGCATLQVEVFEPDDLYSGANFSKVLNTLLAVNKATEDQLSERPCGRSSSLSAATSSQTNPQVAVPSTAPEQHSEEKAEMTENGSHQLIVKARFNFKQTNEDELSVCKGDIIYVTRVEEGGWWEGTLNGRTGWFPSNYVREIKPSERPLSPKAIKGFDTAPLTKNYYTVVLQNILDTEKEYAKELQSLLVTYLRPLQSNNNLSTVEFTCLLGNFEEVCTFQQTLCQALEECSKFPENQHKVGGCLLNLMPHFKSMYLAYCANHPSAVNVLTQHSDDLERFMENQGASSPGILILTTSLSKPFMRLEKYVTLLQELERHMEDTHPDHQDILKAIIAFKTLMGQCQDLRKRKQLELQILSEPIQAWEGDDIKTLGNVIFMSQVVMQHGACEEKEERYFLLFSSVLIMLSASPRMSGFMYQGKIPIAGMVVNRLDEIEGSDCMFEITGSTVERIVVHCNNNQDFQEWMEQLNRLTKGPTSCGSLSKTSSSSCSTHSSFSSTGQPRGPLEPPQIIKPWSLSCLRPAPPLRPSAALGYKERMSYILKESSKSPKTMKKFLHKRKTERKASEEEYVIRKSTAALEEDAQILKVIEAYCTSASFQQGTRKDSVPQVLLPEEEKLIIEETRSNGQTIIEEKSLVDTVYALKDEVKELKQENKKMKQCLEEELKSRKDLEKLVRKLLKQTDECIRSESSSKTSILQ", "UniProt Q8R2L5": "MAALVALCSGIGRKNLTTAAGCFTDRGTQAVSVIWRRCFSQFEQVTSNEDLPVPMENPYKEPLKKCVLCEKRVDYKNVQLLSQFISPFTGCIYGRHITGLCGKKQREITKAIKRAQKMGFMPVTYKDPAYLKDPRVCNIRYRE", "UniProt Q8K3A0": "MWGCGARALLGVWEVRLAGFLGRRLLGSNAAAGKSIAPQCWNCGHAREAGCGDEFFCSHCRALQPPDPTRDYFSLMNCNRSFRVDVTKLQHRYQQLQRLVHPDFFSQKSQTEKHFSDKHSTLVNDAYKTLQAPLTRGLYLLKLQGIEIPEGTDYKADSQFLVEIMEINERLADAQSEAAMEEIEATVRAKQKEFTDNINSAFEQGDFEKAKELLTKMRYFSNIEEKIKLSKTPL", "UniProt Q8K1R7": "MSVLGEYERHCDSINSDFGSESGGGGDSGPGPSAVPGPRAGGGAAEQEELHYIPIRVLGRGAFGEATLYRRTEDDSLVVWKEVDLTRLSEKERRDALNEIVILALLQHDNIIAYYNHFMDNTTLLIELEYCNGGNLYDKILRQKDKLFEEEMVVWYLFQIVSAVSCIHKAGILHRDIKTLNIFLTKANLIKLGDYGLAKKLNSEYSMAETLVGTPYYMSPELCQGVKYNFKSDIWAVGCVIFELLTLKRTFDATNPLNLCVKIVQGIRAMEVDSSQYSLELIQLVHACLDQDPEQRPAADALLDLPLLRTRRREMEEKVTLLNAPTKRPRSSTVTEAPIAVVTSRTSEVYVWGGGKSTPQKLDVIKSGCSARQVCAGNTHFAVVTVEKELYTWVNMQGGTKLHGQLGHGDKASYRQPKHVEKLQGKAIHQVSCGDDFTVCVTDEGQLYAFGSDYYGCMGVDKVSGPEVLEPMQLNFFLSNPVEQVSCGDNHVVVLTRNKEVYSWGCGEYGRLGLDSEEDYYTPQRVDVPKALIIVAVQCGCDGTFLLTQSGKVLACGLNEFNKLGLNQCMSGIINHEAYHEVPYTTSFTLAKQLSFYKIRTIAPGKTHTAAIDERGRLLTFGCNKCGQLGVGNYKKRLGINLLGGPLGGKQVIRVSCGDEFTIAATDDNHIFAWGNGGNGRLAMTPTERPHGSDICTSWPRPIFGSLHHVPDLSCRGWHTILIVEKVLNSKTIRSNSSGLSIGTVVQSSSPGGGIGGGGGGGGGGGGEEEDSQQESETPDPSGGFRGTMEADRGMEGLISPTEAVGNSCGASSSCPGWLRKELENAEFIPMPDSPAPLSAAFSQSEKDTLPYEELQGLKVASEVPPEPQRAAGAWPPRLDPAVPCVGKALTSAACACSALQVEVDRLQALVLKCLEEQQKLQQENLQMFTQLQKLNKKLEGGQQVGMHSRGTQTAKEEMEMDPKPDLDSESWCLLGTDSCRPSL", "UniProt Q8K411": "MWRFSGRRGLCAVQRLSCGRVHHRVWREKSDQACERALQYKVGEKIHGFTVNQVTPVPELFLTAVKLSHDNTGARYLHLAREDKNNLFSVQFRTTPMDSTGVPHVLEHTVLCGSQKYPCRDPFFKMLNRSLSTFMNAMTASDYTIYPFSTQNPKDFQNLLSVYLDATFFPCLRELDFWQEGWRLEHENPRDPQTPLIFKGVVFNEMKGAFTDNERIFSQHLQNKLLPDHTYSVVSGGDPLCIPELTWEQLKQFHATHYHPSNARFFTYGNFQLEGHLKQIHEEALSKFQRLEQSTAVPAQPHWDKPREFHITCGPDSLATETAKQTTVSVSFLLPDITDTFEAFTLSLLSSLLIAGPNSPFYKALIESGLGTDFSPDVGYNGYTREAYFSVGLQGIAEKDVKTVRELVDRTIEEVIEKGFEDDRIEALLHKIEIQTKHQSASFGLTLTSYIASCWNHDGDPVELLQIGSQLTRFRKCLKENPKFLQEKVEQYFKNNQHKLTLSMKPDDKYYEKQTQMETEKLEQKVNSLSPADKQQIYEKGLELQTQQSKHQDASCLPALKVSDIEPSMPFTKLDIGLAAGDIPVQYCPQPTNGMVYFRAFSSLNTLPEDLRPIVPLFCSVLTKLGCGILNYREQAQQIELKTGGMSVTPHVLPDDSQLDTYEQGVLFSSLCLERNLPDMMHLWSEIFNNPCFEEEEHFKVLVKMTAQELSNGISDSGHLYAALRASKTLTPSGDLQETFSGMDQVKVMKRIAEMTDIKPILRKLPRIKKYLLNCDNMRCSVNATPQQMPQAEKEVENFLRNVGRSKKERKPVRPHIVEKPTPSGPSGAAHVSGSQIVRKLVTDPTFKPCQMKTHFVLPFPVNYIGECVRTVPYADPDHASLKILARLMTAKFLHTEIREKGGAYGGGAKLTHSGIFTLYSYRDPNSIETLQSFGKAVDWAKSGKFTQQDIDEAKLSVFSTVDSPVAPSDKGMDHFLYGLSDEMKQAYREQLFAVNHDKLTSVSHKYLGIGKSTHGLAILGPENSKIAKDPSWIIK", "UniProt Q8K2X2": "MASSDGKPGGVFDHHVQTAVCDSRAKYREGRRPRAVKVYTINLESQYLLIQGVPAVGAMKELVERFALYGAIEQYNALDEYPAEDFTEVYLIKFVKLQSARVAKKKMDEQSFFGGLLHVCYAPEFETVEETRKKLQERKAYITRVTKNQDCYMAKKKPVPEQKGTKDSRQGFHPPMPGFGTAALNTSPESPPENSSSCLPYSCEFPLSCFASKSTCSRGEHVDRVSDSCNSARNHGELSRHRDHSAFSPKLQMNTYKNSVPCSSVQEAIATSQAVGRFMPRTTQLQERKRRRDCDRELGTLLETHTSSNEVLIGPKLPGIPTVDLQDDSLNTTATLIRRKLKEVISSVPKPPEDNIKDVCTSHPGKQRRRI", "UniProt Q8R146": "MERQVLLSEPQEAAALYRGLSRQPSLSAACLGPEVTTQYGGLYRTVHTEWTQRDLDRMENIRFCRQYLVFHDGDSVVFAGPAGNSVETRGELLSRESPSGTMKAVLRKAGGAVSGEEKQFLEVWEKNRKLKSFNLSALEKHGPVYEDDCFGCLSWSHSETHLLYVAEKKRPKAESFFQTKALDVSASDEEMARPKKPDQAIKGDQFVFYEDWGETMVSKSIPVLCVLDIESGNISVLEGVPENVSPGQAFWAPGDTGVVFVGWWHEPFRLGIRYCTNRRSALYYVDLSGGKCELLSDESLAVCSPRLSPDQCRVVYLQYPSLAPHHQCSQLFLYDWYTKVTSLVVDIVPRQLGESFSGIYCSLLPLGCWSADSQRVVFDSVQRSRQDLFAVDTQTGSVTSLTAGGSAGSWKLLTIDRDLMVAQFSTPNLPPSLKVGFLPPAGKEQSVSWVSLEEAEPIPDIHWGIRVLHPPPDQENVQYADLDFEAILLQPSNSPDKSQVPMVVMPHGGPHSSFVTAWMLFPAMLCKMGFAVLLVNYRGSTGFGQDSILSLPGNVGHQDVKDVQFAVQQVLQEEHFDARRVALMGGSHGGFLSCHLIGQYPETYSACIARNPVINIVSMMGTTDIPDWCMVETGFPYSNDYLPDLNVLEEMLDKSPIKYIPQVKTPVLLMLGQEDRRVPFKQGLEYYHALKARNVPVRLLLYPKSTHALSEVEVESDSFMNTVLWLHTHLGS", "UniProt Q8R2R3": "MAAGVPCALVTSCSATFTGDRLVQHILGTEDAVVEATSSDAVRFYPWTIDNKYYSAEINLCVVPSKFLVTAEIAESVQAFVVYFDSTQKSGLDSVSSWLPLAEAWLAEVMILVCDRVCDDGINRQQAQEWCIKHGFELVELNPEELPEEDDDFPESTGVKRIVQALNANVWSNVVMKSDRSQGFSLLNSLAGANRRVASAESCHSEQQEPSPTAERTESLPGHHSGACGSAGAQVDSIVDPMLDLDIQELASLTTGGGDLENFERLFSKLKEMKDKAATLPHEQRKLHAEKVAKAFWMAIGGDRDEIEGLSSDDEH", "UniProt Q8R0F8": "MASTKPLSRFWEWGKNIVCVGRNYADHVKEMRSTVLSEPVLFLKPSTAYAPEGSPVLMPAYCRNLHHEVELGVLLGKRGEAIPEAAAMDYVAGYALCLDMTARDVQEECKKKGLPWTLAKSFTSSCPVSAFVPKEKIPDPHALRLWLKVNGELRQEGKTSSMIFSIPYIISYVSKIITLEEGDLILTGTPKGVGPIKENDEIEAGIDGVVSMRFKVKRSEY"}, "source": "the supplement of paper PMC12819154", "about": "“High-throughput peptide-centric local stability assay extends protein–ligand identification to membrane proteins, tissues and bacteria” (Nature Structural & Molecular Biology, 2025)", "note": "Some of the results follow. Most values lie at the level of the controls, where differences are scatter."}
{"compound": "CN[C@@H]1C[C@H]2O[C@@](C)([C@@H]1OC)n1c3ccccc3c3c4c(c5c6ccccc6n2c5c31)C(=O)NC4 [staurosporine]", "assay": "log2 fold change of tryptic peptide abundance, ligand vs vehicle (limited proteolysis) (log2 ratio); higher = more trypsin-susceptible (destabilized)", "details": "ligand concentration: 20 uM; sample: mouse liver crude lysate; replicate design: treated separately"}
{"target": "UniProt Q8R1V4 (peptide sequence: DKLTELQLR, peptide start residue: 151)", "log2 fold change": -0.114}
{"target": "UniProt Q8R0A2 (peptide sequence: TLELPGPSEAGR, peptide start residue: 253)", "log2 fold change": 0.0248}
{"target": "UniProt Q8K4I3 (peptide sequence: EIKPSERPLSPK, peptide start residue: 215)", "log2 fold change": 0.247}
{"target": "UniProt Q8R2L5 (peptide sequence: CVLCEKR, peptide start residue: 66)", "log2 fold change": 0.363}
{"target": "UniProt Q8K3A0 (peptide sequence: YFSNIEEK, peptide start residue: 219)", "log2 fold change": 0.271}
{"target": "UniProt Q8K1R7 (peptide sequence: VTLLNAPTKRPR, peptide start residue: 319)", "log2 fold change": -0.262}
{"target": "UniProt Q8K411 (peptide sequence: KYLLNCDNMR, peptide start residue: 770)", "log2 fold change": -1.09}
{"target": "UniProt Q8K2X2 (peptide sequence: ASSDGKPGGVFDHHVQTAVCDSR, peptide start residue: 2)", "log2 fold change": 0.00592}
{"target": "UniProt Q8R146 (peptide sequence: ALDVSASDEEMARPK, peptide start residue: 181)", "log2 fold change": -0.0999}
{"target": "UniProt Q8R2R3 (peptide sequence: DKAATLPHEQR, peptide start residue: 275)", "log2 fold change": -0.139}
{"target": "UniProt Q8R0F8 (peptide sequence: IPDPHALR, peptide start residue: 143)", "log2 fold change": 0.248}
